Data from publication PMC12854861.
No constants are given. Whether binding was seen depends on the method and setting. In cells and extracts the contact can be indirect. Some binding calls cover weakened binding; strength is not graded here.

Protein sequences, listed by entry. Tags and fused reporters are not part of them. Residues count along the entry.
UniProt P37173, residues 23-567: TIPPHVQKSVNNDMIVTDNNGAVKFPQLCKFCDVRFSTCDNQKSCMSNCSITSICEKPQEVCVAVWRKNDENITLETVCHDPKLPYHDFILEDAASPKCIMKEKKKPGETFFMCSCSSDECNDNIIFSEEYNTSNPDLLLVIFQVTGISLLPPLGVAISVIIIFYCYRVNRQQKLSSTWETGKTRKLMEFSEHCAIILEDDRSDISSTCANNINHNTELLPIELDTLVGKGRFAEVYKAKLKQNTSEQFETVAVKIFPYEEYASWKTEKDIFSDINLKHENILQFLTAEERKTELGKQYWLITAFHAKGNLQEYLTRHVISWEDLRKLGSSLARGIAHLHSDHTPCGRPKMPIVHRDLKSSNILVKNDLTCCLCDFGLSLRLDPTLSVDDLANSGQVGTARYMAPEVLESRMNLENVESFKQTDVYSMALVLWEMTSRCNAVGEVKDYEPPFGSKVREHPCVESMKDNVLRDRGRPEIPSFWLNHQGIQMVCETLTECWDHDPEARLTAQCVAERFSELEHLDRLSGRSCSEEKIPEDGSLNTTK

T1: type 1 TGF-β receptor (TβRI) (UniProt P36897)
T1 sequence: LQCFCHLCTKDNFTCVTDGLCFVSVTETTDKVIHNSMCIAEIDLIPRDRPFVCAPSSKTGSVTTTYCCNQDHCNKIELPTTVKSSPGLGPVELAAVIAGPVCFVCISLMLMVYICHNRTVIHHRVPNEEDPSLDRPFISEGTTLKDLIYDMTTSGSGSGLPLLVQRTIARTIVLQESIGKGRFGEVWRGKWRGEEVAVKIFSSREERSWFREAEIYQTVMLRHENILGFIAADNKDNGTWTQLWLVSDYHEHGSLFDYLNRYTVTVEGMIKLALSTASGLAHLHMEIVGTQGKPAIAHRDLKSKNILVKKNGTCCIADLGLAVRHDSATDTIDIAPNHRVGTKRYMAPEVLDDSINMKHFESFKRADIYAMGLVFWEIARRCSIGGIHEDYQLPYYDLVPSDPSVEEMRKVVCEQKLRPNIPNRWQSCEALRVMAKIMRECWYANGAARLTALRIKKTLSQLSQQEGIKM


Assays:
[1] = molecular target: type 2 TGF-β receptor (TβRII) (UniProt P37173); test: co-IP; HEK-293T cells transfected with the indicated constructs; immunoprecipitation with anti-FLAG and anti-MYC antibodies, followed by immunoblotting
[2] = molecular target: T1, type 1 TGF-β receptor (TβRI); test: as above

Binder	binding [1]	binding [2]
Neurensin 2 (NRSN2), wild type (protein, UniProt Q9GZP1 1-204) MMPSCNRSCSCSRGPSVEDGKWYGVRSYLHLFYEDCAGTALSDDPEGPPVLCPRRPWPSLCWKISLSSGTLLLLLGVAALTTGYAVPPKLEGIGEGEFLVLDQRAADYNQALGTCRLAGTALCVAAGVLLAICLFWAMIGWLSQDTKAEPLDPEADSHVEVFGDEPEQQLSPIFRNASGQSWFSPPASPFGQSSVQTIQPKRDS	binds	binds
NRSN2 p.R104Q variant (c.311G > A) (protein, UniProt Q9GZP1 1-204) MMPSCNRSCSCSRGPSVEDGKWYGVRSYLHLFYEDCAGTALSDDPEGPPVLCPRRPWPSLCWKISLSSGTLLLLLGVAALTTGYAVPPKLEGIGEGEFLVLDQQAADYNQALGTCRLAGTALCVAAGVLLAICLFWAMIGWLSQDTKAEPLDPEADSHVEVFGDEPEQQLSPIFRNASGQSWFSPPASPFGQSSVQTIQPKRDS	binds	binds
NRSN2 p.F183L variant (c.549C > G) (protein, UniProt Q9GZP1 1-204) MMPSCNRSCSCSRGPSVEDGKWYGVRSYLHLFYEDCAGTALSDDPEGPPVLCPRRPWPSLCWKISLSSGTLLLLLGVAALTTGYAVPPKLEGIGEGEFLVLDQRAADYNQALGTCRLAGTALCVAAGVLLAICLFWAMIGWLSQDTKAEPLDPEADSHVEVFGDEPEQQLSPIFRNASGQSWLSPPASPFGQSSVQTIQPKRDS	binds	binds
